Source: paper PMC5940392
These are yes or no findings as the source states them, for the method shown. Binding seen in cells or lysates may run through a third protein. Some binding calls cover weakened binding; strength is not graded here.

Protein sequences, listed by entry. Tags and fused reporters are not part of them.
UniProt Q5VTD9: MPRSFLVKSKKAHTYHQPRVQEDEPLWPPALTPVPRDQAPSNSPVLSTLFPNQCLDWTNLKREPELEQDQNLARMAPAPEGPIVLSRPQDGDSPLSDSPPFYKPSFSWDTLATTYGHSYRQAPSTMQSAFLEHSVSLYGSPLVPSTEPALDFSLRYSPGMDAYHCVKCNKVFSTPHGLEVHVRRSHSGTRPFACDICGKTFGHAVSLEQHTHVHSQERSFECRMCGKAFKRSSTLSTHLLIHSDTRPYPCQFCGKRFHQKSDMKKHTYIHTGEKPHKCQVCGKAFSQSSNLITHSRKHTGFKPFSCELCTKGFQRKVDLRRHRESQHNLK
UniProt Q13547: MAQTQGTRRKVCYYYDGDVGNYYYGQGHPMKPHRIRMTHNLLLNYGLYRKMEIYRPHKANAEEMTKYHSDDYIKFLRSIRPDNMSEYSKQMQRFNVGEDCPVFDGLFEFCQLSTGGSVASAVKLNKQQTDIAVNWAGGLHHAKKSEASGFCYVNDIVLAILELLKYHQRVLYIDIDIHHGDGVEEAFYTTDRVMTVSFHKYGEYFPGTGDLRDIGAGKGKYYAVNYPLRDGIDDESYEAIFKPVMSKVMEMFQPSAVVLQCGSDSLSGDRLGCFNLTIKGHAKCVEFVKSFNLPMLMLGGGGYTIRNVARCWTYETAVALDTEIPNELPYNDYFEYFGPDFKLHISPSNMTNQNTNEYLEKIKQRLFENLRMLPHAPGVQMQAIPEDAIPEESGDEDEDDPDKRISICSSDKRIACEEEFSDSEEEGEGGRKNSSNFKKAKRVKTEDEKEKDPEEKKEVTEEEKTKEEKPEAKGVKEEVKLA
UniProt Q92769: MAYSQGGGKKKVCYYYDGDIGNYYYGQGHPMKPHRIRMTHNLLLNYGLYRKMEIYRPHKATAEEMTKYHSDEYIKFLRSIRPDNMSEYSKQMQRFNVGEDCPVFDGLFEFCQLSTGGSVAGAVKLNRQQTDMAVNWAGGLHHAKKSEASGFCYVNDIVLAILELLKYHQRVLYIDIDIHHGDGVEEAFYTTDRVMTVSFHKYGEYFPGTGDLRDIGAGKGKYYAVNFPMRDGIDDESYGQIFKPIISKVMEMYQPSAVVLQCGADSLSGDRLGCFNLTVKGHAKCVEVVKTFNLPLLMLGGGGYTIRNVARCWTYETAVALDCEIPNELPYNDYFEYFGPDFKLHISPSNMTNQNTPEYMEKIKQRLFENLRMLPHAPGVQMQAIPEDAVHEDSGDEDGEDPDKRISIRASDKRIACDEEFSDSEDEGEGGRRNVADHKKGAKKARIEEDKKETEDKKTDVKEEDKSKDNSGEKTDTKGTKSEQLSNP

Key:
[1] = target: RUNX1 (human (endogenous in HEL)) (UniProt Q01196); assay: co-IP; endogenous proteins of HEL whole-cell lysate (lysis in N450 buffer, diluted with 2 volumes of N0 buffer; 4 C; washes with N150 buffer: 150 mM NaCl, 1% NP-40); IP with anti-LSD1, anti-GFI1B or anti-RUNX1 antibody, normal IgG as control, western blot; untreated cells, also cells treated with DMSO or 2 uM NCD38 for 24 h (LSD1-IP: no impairment; RUNX1-IP: less impaired)
[2] = target: GFI1B (human (endogenous in HEL)) (UniProt Q5VTD9); assay: as above
[3] = target: GFI1B (human (endogenous in HEL)) (UniProt Q5VTD9); assay: co-IP; HEL cells treated with 2 uM NCD38 for 24 hours; IP with anti-GFI1B antibody, western blot; compared with DMSO

## RE1 silencing transcription factor corepressor (from UniProt Q9UKL0 1-485)
[1]
  binding: binds
[2]
  binding: binds
[3]
  binding: binds weakly

## histone deacetylase 1 (from UniProt Q13547 1-482) (enzyme)
[1]
  binding: binds
[2]
  binding: binds
[3]
  binding: binds weakly

## histone deacetylase 2 (from UniProt Q92769 1-488) (enzyme)
[1]
  binding: binds
[2]
  binding: binds
[3]
  binding: binds weakly
